Test results from patent publication US20180327367A1, “MACROCYCLIC BROAD SPECTRUM ANTIBIOTICS” (priority 2015, published 2018).
Values after ≈ are worked out from the molar mass of the structure shown.

Test system: Escherichia coli MC4100 harboring the IMP4213 (E. coli IMP)
Experiment: microbe, parasite or virus in culture
Assay type: cell-based
Conditions: 22 h, read-out: MIC (μg/mL) E. coli IMP, E. coli MC4100 IMP4213, increased outer-membrane permeability, 35° C.
Method: In vitro antimicrobial activity of each compound was determined by measuring minimal inhibitor concentrations (MICs) using the broth micro-dilution technique as approved by the Clinical and Laboratory Standards Institute (CLSI) (Methods for Dilution Antimicrobial Susceptibility Tests for Bacteria that Grow Aerobically; Approved Standard—Eighth Edition. CLSI document M07-A8. Wayne, Pa.: Clinical and Laboratory Standards; 2009). Antibacterial activity was measure against three strains of bacteria: a Methicillin Resistant Staphylococcus aureus strain USA 300, NRS384 (S. aureus); a strain of Escherichia coli MC4100 harboring the IMP4213 (E. coli IMP), which results in increased outer-membrane permeability (B Martin and Silhavy T. Imp/OstA is required for cell envelope biogenesis in Escherichia coli. (2002) Molecular Microbiology, 45(5), 1289-1302), and Escherichia coli ATCC 25922 (E. coli), a clinically relevant Gram-negative strain. Cells were inoculated onto plates of Trypyticase Soy Agar or Luria Agar respectively and grown at 35° C. for 20 hours. Inocula suspensions were prepared by scraping cells into 1 mL of testing media (cation adjusted Mueller Hinton Broth supplemented with 0.002% v/v Tween-80) and diluting to a final OD600 nm of 0.01.
Test compounds were prepared in DMSO at a concentration of 10 mg/mL. […]

Cc1cc(Oc2ccc(C(C)(C)C)cc2)ccc1C(=O)N[C@@H](CCN)C(=O)N(C)[C@@H]1C(=O)N[C@@H](C)C(=O)N[C@H](C(=O)NCC#N)Cc2ccc(OCCN)c(c2)-c2cc1ccc2OCCN [Compound 302]
MIC: 0.016 µg/mL (≈ 0.0177 µM)
